33 targets from the supplement of paper PMC10849652 can be followed below.

By UniProt entry, the sequences of proteins in these tests, tags left out. Where a name states a change or a piece, a line headed by the entry shows the natural chain unless it says otherwise.
UniProt Q5GLZ8: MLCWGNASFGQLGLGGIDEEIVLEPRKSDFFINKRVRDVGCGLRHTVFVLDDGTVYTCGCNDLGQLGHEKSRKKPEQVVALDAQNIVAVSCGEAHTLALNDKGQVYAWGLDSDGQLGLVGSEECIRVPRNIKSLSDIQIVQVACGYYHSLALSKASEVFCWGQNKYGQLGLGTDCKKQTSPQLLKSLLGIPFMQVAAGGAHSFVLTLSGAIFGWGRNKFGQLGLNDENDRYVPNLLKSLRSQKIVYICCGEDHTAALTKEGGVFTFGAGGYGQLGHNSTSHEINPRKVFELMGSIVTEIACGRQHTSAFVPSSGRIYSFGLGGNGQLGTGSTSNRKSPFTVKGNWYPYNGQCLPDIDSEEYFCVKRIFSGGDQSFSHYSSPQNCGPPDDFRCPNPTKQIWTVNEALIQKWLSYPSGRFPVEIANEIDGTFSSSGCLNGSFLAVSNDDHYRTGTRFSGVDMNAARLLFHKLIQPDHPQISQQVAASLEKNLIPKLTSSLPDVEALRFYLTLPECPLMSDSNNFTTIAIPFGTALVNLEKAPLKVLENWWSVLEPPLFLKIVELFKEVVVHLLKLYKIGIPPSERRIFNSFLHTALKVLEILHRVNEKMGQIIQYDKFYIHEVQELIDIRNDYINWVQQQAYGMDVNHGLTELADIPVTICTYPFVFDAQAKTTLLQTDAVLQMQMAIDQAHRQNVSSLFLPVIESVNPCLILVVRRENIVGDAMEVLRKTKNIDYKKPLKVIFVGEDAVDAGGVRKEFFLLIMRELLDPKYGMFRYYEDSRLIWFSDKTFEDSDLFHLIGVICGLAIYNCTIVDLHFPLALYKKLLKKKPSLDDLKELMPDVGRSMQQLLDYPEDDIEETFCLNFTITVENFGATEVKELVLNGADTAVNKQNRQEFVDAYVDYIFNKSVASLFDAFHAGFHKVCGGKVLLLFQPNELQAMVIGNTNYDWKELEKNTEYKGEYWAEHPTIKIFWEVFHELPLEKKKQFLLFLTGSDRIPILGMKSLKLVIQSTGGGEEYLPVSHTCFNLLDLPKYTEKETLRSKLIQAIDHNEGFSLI
UniProt Q8IX15: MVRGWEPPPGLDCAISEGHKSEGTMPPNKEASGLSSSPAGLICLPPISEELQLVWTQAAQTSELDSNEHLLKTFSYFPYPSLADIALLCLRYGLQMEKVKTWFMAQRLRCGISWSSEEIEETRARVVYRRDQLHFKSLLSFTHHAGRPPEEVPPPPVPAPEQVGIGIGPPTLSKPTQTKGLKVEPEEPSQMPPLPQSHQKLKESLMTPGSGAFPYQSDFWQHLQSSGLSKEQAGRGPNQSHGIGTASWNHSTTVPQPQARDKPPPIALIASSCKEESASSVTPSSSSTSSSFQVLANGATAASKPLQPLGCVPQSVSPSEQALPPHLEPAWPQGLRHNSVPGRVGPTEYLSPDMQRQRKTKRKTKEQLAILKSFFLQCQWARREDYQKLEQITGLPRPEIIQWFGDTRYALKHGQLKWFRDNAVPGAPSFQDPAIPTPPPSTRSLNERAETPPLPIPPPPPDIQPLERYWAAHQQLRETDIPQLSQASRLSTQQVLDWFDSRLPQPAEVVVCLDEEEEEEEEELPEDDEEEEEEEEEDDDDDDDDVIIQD
UniProt P56937: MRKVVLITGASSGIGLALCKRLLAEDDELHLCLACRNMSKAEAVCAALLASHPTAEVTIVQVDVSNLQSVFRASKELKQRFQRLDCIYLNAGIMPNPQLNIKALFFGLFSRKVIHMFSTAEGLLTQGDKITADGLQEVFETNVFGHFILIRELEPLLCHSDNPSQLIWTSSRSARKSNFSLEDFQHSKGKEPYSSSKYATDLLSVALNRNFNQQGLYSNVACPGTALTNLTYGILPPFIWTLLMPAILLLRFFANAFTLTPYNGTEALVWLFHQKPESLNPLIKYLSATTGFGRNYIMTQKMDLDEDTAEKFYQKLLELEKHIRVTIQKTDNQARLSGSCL
UniProt Q8NBQ5: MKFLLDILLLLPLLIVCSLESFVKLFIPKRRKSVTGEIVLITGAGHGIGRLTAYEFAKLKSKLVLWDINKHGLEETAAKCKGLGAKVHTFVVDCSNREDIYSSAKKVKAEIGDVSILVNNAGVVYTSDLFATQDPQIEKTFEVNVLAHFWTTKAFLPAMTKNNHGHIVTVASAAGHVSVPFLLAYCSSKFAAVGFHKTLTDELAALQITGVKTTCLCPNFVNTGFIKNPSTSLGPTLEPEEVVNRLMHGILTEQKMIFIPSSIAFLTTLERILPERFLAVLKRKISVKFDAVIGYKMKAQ
UniProt Q9UGU5: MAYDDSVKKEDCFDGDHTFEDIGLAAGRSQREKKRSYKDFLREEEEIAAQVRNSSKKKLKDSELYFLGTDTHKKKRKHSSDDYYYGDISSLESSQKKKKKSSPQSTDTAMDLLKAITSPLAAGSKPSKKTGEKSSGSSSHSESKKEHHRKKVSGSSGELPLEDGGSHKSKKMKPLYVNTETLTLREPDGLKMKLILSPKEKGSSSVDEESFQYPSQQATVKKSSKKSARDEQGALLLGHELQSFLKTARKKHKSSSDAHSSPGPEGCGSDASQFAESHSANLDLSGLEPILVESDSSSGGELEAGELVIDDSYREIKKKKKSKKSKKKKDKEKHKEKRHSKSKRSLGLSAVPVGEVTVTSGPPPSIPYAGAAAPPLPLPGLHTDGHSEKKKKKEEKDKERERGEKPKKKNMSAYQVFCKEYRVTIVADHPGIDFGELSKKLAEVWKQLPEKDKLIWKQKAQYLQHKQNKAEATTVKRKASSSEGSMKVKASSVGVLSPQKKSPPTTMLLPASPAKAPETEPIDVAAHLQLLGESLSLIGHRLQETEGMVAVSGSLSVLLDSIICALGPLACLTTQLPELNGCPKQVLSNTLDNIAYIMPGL
UniProt P14866: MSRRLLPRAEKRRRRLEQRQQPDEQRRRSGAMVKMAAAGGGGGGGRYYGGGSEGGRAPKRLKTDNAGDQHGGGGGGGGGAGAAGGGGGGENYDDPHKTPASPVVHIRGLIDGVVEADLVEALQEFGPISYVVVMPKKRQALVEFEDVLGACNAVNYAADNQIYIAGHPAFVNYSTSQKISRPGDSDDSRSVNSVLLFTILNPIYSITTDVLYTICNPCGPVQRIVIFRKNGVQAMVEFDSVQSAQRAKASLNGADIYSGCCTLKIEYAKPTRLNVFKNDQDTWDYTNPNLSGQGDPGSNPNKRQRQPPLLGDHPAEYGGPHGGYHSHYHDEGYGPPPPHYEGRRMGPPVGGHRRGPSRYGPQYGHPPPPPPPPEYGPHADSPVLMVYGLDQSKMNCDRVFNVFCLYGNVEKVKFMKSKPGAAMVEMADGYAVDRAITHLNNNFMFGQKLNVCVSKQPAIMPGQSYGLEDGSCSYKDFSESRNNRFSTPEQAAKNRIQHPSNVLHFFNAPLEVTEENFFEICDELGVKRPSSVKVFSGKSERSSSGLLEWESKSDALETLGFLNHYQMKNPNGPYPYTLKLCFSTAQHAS
UniProt Q8WVV9: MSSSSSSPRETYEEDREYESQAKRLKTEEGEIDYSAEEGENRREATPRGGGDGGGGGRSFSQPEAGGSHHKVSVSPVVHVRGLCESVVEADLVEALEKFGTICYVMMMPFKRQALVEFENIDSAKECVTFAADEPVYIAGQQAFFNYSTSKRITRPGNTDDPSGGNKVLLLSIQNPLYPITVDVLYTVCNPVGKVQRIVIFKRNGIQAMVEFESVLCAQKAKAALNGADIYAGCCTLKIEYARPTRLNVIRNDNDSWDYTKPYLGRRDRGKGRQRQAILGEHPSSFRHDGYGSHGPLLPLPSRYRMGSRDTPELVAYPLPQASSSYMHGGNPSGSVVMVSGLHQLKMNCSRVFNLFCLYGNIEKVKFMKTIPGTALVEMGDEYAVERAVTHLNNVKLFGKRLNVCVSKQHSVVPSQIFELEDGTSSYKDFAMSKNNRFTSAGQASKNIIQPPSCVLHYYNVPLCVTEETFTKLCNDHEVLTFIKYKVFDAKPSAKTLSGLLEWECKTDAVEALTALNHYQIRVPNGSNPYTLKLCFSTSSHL
UniProt O15347: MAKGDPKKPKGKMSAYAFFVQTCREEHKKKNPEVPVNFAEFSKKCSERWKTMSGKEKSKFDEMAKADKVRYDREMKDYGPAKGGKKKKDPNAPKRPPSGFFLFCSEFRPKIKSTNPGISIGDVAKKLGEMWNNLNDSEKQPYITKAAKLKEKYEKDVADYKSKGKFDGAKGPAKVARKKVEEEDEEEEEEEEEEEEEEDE
UniProt P05114: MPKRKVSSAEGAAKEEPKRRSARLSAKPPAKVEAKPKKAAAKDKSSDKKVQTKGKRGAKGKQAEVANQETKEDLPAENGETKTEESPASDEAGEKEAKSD
UniProt O75506: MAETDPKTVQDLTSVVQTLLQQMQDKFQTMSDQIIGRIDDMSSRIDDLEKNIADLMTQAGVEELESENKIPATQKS
UniProt Q58FF6, whole entry, looked up: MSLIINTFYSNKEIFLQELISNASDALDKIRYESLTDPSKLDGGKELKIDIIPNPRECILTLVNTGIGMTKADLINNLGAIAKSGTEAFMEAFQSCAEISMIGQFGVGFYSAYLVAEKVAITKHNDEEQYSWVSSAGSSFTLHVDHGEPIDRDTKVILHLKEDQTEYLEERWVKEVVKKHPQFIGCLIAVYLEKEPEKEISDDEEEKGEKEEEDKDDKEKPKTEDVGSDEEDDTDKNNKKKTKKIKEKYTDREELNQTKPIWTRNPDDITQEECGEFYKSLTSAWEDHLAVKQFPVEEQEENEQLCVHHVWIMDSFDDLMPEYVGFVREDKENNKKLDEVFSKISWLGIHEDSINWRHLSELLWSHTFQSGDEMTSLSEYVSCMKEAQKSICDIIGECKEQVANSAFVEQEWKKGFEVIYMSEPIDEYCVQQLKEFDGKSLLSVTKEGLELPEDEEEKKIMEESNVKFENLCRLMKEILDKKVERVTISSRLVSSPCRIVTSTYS
UniProt P31942: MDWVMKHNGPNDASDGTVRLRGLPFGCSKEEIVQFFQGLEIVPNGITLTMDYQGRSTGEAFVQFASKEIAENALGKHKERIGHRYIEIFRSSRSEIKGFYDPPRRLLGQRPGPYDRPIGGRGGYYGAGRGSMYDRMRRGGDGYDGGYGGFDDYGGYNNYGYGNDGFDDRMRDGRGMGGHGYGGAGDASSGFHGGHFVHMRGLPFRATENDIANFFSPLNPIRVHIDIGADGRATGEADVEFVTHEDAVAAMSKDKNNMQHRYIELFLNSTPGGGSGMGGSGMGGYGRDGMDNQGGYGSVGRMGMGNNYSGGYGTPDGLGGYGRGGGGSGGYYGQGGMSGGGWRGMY
UniProt P00492: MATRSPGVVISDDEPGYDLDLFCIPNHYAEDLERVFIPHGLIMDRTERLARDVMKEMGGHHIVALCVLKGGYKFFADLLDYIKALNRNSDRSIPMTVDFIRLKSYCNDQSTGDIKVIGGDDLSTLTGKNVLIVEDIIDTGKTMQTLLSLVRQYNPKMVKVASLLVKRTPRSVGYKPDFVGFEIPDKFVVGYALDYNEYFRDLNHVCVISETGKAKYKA
UniProt Q00613: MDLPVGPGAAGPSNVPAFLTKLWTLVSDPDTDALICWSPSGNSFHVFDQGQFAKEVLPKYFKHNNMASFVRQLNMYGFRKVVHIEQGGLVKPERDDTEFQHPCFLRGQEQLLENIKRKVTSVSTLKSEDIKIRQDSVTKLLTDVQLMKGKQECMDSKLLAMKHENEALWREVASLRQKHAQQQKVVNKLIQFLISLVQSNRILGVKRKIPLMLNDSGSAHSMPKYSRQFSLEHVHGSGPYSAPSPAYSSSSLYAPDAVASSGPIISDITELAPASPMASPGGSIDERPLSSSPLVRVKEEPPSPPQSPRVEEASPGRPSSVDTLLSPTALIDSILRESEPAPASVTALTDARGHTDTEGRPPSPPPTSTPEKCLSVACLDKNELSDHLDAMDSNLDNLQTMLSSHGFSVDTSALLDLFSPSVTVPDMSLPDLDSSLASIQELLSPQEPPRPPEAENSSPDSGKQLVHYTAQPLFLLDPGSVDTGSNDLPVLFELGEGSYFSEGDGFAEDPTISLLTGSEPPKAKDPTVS
UniProt Q9BW71: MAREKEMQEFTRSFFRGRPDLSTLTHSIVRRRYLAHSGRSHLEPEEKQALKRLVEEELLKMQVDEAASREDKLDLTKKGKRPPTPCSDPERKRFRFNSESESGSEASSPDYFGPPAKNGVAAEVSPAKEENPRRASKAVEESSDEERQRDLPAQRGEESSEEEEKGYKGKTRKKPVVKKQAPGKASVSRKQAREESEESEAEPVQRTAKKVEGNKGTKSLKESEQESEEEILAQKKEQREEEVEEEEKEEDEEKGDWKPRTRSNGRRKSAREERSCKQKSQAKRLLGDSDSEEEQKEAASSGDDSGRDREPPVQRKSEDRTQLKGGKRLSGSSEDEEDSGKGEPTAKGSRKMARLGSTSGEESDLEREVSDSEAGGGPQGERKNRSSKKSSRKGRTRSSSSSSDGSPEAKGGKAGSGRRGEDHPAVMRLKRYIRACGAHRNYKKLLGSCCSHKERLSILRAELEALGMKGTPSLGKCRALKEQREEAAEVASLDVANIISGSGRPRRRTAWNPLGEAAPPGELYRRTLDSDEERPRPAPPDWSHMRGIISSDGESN

Some of the results follow.

Compound in the assay: NCC(=O)Nc1ccc(-n2nc(C(F)(F)F)cc2-c2ccc3c(ccc4ccccc43)c2)cc1
Nature of the assay: log2 fold change, soluble protein after heating vs DMSO (PISA); higher = thermal stabilisation; K562 lysate, 10 uM; active = over 0.2 and 3.5 SD of the protein, either way, in both replicates (recomputed). The procedure, abridged:
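Values give the log-two fold change in thermal stability against solvent controls, from duplicates. Crude K562 extract at 1 mg/mL protein, made by dounce homogenisation in PBS pH 7.4 with 1 mM MgCl2, was treated with 10 μM compound for 30 min. After 3 min heating across 48°C-58°C, aliquots were pooled, adjusted to 0.5% NP-40 at 4°C and centrifuged at 21,000xg for 90 min. The supernatant was measured by TMTpro 16plex LC-MS/MS with channel sums equalised.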
As to HNRNPR isoform 2 (UniProt O43390), the log2 fold change is inactive: -0.021.

As to HERC4 (UniProt Q5GLZ8), the log2 fold change was inactive: 0.003.

For HOMEZ isoform 3 (UniProt Q8IX15), the log2 fold change was inactive: -0.116.

Regarding HSDL1 (UniProt Q3SXM5), the log2 fold change is inactive: -0.092.

With HNRNPA3 (UniProt P51991), the log2 fold change was inactive: -0.044.

Take HEXD isoform 2 (UniProt Q8WVB3): the log2 fold change was inactive: -0.133.

With HSD17B7 (UniProt P56937), the log2 fold change is inactive: -0.097.

Regarding HSP90AB1 (UniProt P08238), the log2 fold change is inactive: 0.013.

For HELQ (UniProt Q8TDG4), the log2 fold change was inactive: -0.003.

Consider HMGB2 (UniProt P26583), for which the log2 fold change was inactive: 0.004.

On to HNRNPAB isoform 3 (UniProt Q99729), for which the log2 fold change was inactive: 0.067.

As to HNRNPK isoform 3 (UniProt P61978), the log2 fold change was inactive: 0.051.

Regarding HSD17B11 (UniProt Q8NBQ5), the log2 fold change is inactive: -0.031.

As to HMGXB4 (UniProt Q9UGU5), the log2 fold change is inactive: -0.04.

With HNRNPL (UniProt P14866), the log2 fold change is inactive: 0.005.

HNRNPLL (UniProt Q8WVV9): the log2 fold change was inactive: 0.009.

Consider HMG20A (UniProt Q9NP66), for which the log2 fold change was inactive: 0.023.

Regarding HNRNPA0 (UniProt Q13151), the log2 fold change is inactive: 0.056.

Regarding HMGB3 (UniProt O15347), the log2 fold change was inactive: -0.03.

For HIBCH (UniProt Q6NVY1), the log2 fold change was inactive: 0.005.

For the target HMGN5 (UniProt P82970), the log2 fold change was inactive: -0.014.

On to HMGN1 (UniProt P05114), for which the log2 fold change is inactive: -0.013.

For HSBP1 (UniProt O75506), the log2 fold change is inactive: -0.022.

Turning to HK2 (UniProt P52789), the log2 fold change is inactive: -0.018.

On to HSP90AB4P (UniProt Q58FF6), for which the log2 fold change was inactive: 0.056.

For HNRNPH3 (UniProt P31942), the log2 fold change is inactive: -0.04.

For the target HINT3 (UniProt Q9NQE9), the log2 fold change is inactive: -0.019.

On to HSPA2 (UniProt P54652), for which the log2 fold change is inactive: 0.044.

Turning to HPRT1 (UniProt P00492), the log2 fold change was inactive: -0.008.

As for HSF1 (UniProt Q00613), the log2 fold change was inactive: -0.024.

On to HIRIP3 (UniProt Q9BW71), for which the log2 fold change was inactive: -0.012.

HNRNPA1 (UniProt H0YH80): the log2 fold change is inactive: 0.004.

HSP90B1 (UniProt P14625): the log2 fold change is inactive: 0.005.
